Experimental data taken from ChEMBL document CHEMBL4316593 (Eur J Med Chem, 2019).
The source gives many values for each of these; only a part stands here.

Key:
Type in all cases: cell-based
Conditions in all cases: U-87MG ATCC
[1] = Inhibition of RTK/PI3K/AKT/mTOR signaling in human U87 cells assessed as down regulation of RELB gene expression at cytotoxic IC50 measured after 48 hrs relative to control
[2] = Inhibition of RTK/PI3K/AKT/mTOR signaling in human U87 cells assessed as up regulation of ACSM3 gene expression at cytotoxic IC50 measured after 48 hrs relative to control
[3] = Inhibition of RTK/PI3K/AKT/mTOR signaling in human U87 cells assessed as up regulation of jagged 1 gene expression at cytotoxic IC50 measured after 48 hrs relative to control
[4] = Inhibition of RTK/PI3K/AKT/mTOR signaling in human U87 cells assessed as down regulation of ZNF100 gene expression at cytotoxic IC50 measured after 48 hrs relative to control
[5] = Inhibition of RTK/PI3K/AKT/mTOR signaling in human U87 cells assessed as up regulation of shroom family member 3 gene expression at cytotoxic IC50 measured after 48 hrs relative to control
[6] = Inhibition of RTK/PI3K/AKT/mTOR signaling in human U87 cells assessed as down regulation of PNPLA8 gene expression at cytotoxic IC50 measured after 48 hrs relative to control
[7] = Inhibition of RTK/PI3K/AKT/mTOR signaling in human U87 cells assessed as up regulation of FOSL2 gene expression at cytotoxic IC50 measured after 48 hrs relative to control
[8] = Inhibition of RTK/PI3K/AKT/mTOR signaling in human U87 cells assessed as up regulation of butyrophilin subfamily 3 member A2 gene expression at cytotoxic IC50 measured after 48 hrs relative to control
[9] = Inhibition of RTK/PI3K/AKT/mTOR signaling in human U87 cells assessed as up regulation of zinc finger protein 76 gene expression at cytotoxic IC50 measured after 48 hrs relative to control
[10] = Inhibition of RTK/PI3K/AKT/mTOR signaling in human U87 cells assessed as up regulation of alpha kinase 1 gene expression at cytotoxic IC50 measured after 48 hrs relative to control
[11] = Inhibition of RTK/PI3K/AKT/mTOR signaling in human U87 cells assessed as up regulation of TRIO and F-actin binding protein gene expression at cytotoxic IC50 measured after 48 hrs relative to control
[12] = Inhibition of RTK/PI3K/AKT/mTOR signaling in human U87 cells assessed as up regulation of CD276 gene expression at cytotoxic IC50 measured after 48 hrs relative to control
[13] = Inhibition of RTK/PI3K/AKT/mTOR signaling in human U87 cells assessed as down regulation of USP22 gene expression at cytotoxic IC50 measured after 48 hrs relative to control
[14] = Inhibition of RTK/PI3K/AKT/mTOR signaling in human U87 cells assessed as up regulation of TBK1 binding protein 1 gene expression at cytotoxic IC50 measured after 48 hrs relative to control
[15] = Inhibition of RTK/PI3K/AKT/mTOR signaling in human U87 cells assessed as down regulation of RRAD gene expression at cytotoxic IC50 measured after 48 hrs relative to control
[16] = Inhibition of RTK/PI3K/AKT/mTOR signaling in human U87 cells assessed as up regulation of chromosome 4 open reading frame 3 gene expression at cytotoxic IC50 measured after 48 hrs relative to control
[17] = Inhibition of RTK/PI3K/AKT/mTOR signaling in human U87 cells assessed as up regulation of interleukin 1 receptor accessory protein gene expression at cytotoxic IC50 measured after 48 hrs relative to control
[18] = Inhibition of RTK/PI3K/AKT/mTOR signaling in human U87 cells assessed as up regulation of spen family transcriptional repressor gene expression at cytotoxic IC50 measured after 48 hrs relative to control
[19] = Inhibition of RTK/PI3K/AKT/mTOR signaling in human U87 cells assessed as down regulation of RFTN1 gene expression at cytotoxic IC50 measured after 48 hrs relative to control
[20] = Inhibition of RTK/PI3K/AKT/mTOR signaling in human U87 cells assessed as up regulation of SWI/SNF related, matrix associated, actin dependent regulator of chromatin, subfamily a, member 1 gene expression at cytotoxic IC50 measured after 48 hrs relative to control
[21] = Inhibition of RTK/PI3K/AKT/mTOR signaling in human U87 cells assessed as down regulation of HCFC2 gene expression at cytotoxic IC50 measured after 48 hrs relative to control
[22] = Inhibition of RTK/PI3K/AKT/mTOR signaling in human U87 cells assessed as up regulation of ZNF469 gene expression at cytotoxic IC50 measured after 48 hrs relative to control
[23] = Inhibition of RTK/PI3K/AKT/mTOR signaling in human U87 cells assessed as down regulation of ESCO2 gene expression at cytotoxic IC50 measured after 48 hrs relative to control
[24] = Inhibition of RTK/PI3K/AKT/mTOR signaling in human U87 cells assessed as up regulation of stearoyl-CoA desaturase gene expression at cytotoxic IC50 measured after 48 hrs relative to control
[25] = Inhibition of RTK/PI3K/AKT/mTOR signaling in human U87 cells assessed as up regulation of FRAT2, WNT signaling pathway regulator gene expression at cytotoxic IC50 measured after 48 hrs relative to control
[26] = Inhibition of RTK/PI3K/AKT/mTOR signaling in human U87 cells assessed as down regulation of TMTC3 gene expression at cytotoxic IC50 measured after 48 hrs relative to control
[27] = Inhibition of RTK/PI3K/AKT/mTOR signaling in human U87 cells assessed as down regulation of TP53I13 gene expression at cytotoxic IC50 measured after 48 hrs relative to control
[28] = Inhibition of RTK/PI3K/AKT/mTOR signaling in human U87 cells assessed as down regulation of RNF219 gene expression at cytotoxic IC50 measured after 48 hrs relative to control
[29] = Inhibition of RTK/PI3K/AKT/mTOR signaling in human U87 cells assessed as up regulation of THO complex 6 gene expression at cytotoxic IC50 measured after 48 hrs relative to control
[30] = Inhibition of RTK/PI3K/AKT/mTOR signaling in human U87 cells assessed as down regulation of CACUL1 gene expression at cytotoxic IC50 measured after 48 hrs relative to control
[31] = Inhibition of RTK/PI3K/AKT/mTOR signaling in human U87 cells assessed as up regulation of VHL gene expression at cytotoxic IC50 measured after 48 hrs relative to control
[32] = Inhibition of RTK/PI3K/AKT/mTOR signaling in human U87 cells assessed as down regulation of TINF2 gene expression at cytotoxic IC50 measured after 48 hrs relative to control

## CC(=O)C(=NNc1ccccc1C#N)C(C)=O
[1]
  log2FC: -0.801
[2]
  log2FC: 1.9
[3]
  log2FC: 0.956
[4]
  log2FC: -1.37
[5]
  log2FC: 0.977
[6]
  log2FC: -0.884
[7]
  log2FC: 0.598
[8]
  log2FC: 0.975
[9]
  log2FC: 0.823
[10]
  log2FC: 0.666
[11]
  log2FC: 0.826
[12]
  log2FC: 0.539
[13]
  log2FC: -0.468
[14]
  log2FC: 1.02
[15]
  log2FC: -1.46
[16]
  log2FC: 1.53
[17]
  log2FC: 1.2
[18]
  log2FC: 0.811
[19]
  log2FC: -3.54
[20]
  log2FC: 0.779
[21]
  log2FC: -1.11
[22]
  log2FC: 2.87
[23]
  log2FC: -1.55
[24]
  log2FC: 1.26
[25]
  log2FC: 1.34
[26]
  log2FC: -0.742
[27]
  log2FC: -0.709
[28]
  log2FC: -1.23
[29]
  log2FC: 1
[30]
  log2FC: -0.564
[31]
  log2FC: 0.562
[32]
  log2FC: -0.711
